{"source": "patent US6126917A", "about": "“Epidermal growth factor receptor binding compounds for positron emission tomography” (Hadasit Medical Research Services and Development Ltd., priority 1999, dated 2000)", "origin": "cited, not measured here", "tested_on": "EGFR-TK", "details": "normal mice, cited from earlier work"}
{"molecule": "COc1cc2ncnc(Nc3cccc(Br)c3)c2cc1OC", "note": "[PD 153035]", "values": [{"measurement": "uptake specificity", "setting": "PD 153035 labeled with 11C in the 7-methoxy position", "result": "uptake specificity could not be demonstrated"}, {"measurement": "effect of enzyme-blocking dose of PD 153035 on tracer uptake", "setting": "tracer: PD 153035 labeled with 11C in 7-methoxy position", "result": "caused an increase in tracer uptake in the tissues studied"}]}
